Measured values from patent publication US4716238A, “Chromene derivatives useful as insecticides” (Alkaloida Vegyeszeti Gyar, priority 1983, dated 1987).
The name of at least one read-out is uncertain.

Each molecule was assayed on Colorado beetle (assay: Colorado beetle test). Conditions: control 95%.
Type: in vivo

SMILES	Developped imago
COc1cc2c(cc1OC)OC(C)(C)C=C2 [Compound P2, reference compound]	68%
CC1(C)C=Cc2cc(OCc3ccccc3)c(OCc3ccccc3)cc2O1 [Compound 56, 6,7-dibenzyloxy-2,2-dimethyl-2H-chromene]	0%
COc1c(OCC(C)C)ccc2c1OC(C)(C)C=C2 [Compound 91, 7-isobutoxy-8-methoxy-2,2-dimethyl-2H-chromene]	21%
